Results deposited as PubChem BioAssay AID1259285 (Sanger Institute, 2017).
The whole screen tested 794 reagents; this is a part drawn at random. Of all reagents, 20 (2.5%) are marked active. 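Calls rest on the drug-free arm alone and ignore synergy scores; viability ratios seem to be capped at 1.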 No sequences are given here. Not given: the amount of reagent, the time to read-out.

- Purpose: 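Kinase knock-downs that reduce colorectal cancer cell viability or act with drugs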 (primary screen)
- Cells: human HCC56 colorectal cancer cells
- Reagents: siRNA pool against human genes
- Treatment: DMSO vehicle, or anchor drug BYL719 at 1 µM, cetuximab at 5 µg/ml, or trametinib at 10 nM
- Measured: 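Viability as a ratio to non-targeting pool wells, averaged over replicates and turned into a robust z-score; synergy scores with BYL719, cetuximab or trametinib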
- Reading the numbers: viability robust z-score, no drug: higher = more viable cells, weaker knock-down effect; viability vs non-targeting pool, no drug: higher = more viable cells; synergy score with BYL719: higher = stronger combined killing with BYL719; synergy score with cetuximab: higher = stronger combined killing with cetuximab; synergy score with trametinib: higher = stronger combined killing with trametinib
- Hit rule: 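Essential when the drug-free viability robust z-score falls below -3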
- Calls: active = essential without drug; inactive = no change without drug

Target gene | viability robust z-score, no drug | viability vs non-targeting pool, no drug | synergy score with BYL719 | synergy score with cetuximab | synergy score with trametinib | outcome
STRADB (STE20 related adaptor beta) | 0.458 | 1 | -0.114 | -0.142 | -0.00191 | inactive
BMX (BMX non-receptor tyrosine kinase) | 0.458 | 1 | -0.162 | -0.142 | -0.00844 | inactive
RPS6KA4 (ribosomal protein S6 kinase A4) | 0.458 | 1 | -0.162 | -0.142 | -0.0799 | inactive
PKN2 (protein kinase N2) | -0.0418 | 0.957 | 0.0535 | 0.0437 | 0.129 | inactive
NME2 (NME/NM23 nucleoside diphosphate kinase 2) | 0.458 | 1 | -0.162 | -0.142 | 0.0582 | inactive
STK32A (serine/threonine kinase 32A) | 0.458 | 1 | -0.0809 | -0.142 | -0.0433 | inactive
FN1 (fibronectin 1) | 0.458 | 1 | -0.162 | -0.142 | -0.248 | inactive
TYRO3 (TYRO3 protein tyrosine kinase) | 0.458 | 1 | 0.037 | -0.0764 | 0.00906 | inactive
DBF4 (DBF4-CDC7 kinase regulatory subunit) | 0.458 | 1 | -0.162 | -0.142 | -0.144 | inactive
MECOM (MDS1 and EVI1 complex locus) | 0.458 | 1 | -0.162 | -0.142 | -0.0304 | inactive
PANK3 (pantothenate kinase 3) | 0.458 | 1 | -0.162 | -0.142 | -0.0513 | inactive
PLK3 (polo like kinase 3) | 0.458 | 1 | -0.0666 | -0.142 | -0.066 | inactive
NME7 (NME/NM23 family member 7) | 0.458 | 1 | -0.162 | -0.142 | -0.141 | inactive
RIOK3 (RIO kinase 3) | 0.458 | 1 | 0.0638 | -0.00405 | 0.0639 | inactive
MAPK8 (mitogen-activated protein kinase 8) | 0.458 | 1 | -0.133 | -0.142 | -0.0815 | inactive
PI4KA (phosphatidylinositol 4-kinase alpha) | 0.458 | 1 | -0.162 | -0.142 | -0.102 | inactive
COASY (Coenzyme A synthase) | -0.703 | 0.9 | 0.0429 | -0.173 | 0.0543 | inactive
RIOK2 (RIO kinase 2) | 0.458 | 1 | -0.0955 | -0.142 | 0.000926 | inactive
BRD4 (bromodomain containing 4) | 0.458 | 1 | -0.0473 | -0.142 | -0.0811 | inactive
SPEG (striated muscle enriched protein kinase) | 0.458 | 1 | -0.162 | -0.142 | -0.0525 | inactive
KSR1 (kinase suppressor of ras 1) | -3.77 | 0.637 | -0.0378 | 0 | -0.108 | active
EPHB1 (EPH receptor B1) | 0.458 | 1 | -0.162 | -0.072 | -0.0851 | inactive
MET (MET proto-oncogene, receptor tyrosine kinase) | -0.325 | 0.933 | 0.0477 | 0.00724 | 0.0255 | inactive
MAST4 | 0.458 | 1 | -0.162 | -0.142 | -0.0267 | inactive
RFK (riboflavin kinase) | 0.458 | 1 | -0.11 | -0.142 | -0.0622 | inactive
NUCKS1 | 0.458 | 1 | -0.128 | -0.103 | 0.00187 | inactive
EPHA4 (EPH receptor A4) | 0.458 | 1 | 0.0749 | 0.0251 | 0.0329 | inactive
PIM2 (Pim-2 proto-oncogene, serine/threonine kinase) | 0.247 | 0.982 | 0.0942 | 0.0583 | 0.0214 | inactive
CRKL (CRK like proto-oncogene, adaptor protein) | -0.367 | 0.929 | -0.00613 | -0.101 | 0.00549 | inactive
INSRR (insulin receptor related receptor) | -0.267 | 0.938 | 0.13 | 0.145 | 0.141 | inactive
GRK4 (G protein-coupled receptor kinase 4) | -0.301 | 0.935 | 0.078 | 0.0884 | 0.107 | inactive
RPS6KA1 (ribosomal protein S6 kinase A1) | 0.458 | 1 | -0.0964 | -0.142 | 0.0197 | inactive
KIT (KIT proto-oncogene, receptor tyrosine kinase) | 0.458 | 1 | -0.162 | -0.142 | -0.0538 | inactive
PRKAA2 (protein kinase AMP-activated catalytic subunit alpha 2) | 0.458 | 1 | 0.00487 | -0.00604 | 0.168 | inactive

Reagents listed so far called active, once more:
Target gene | viability robust z-score, no drug | viability vs non-targeting pool, no drug | synergy score with BYL719 | synergy score with cetuximab | synergy score with trametinib | outcome
KSR1 (kinase suppressor of ras 1) | -3.77 | 0.637 | -0.0378 | 0 | -0.108 | active
